Experimental data: PubChem BioAssay AID652259 (Drosophila RNAi Screening Center, 2013)
In all, the deposit lists about 22,000 reagents; below is a random part of those with a known target gene and a result. Over the whole deposit, 233 (1.1%) are marked active. 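Light values are raw, unnormalised plate reads; the ratio scores behind the reporter calls were not deposited.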 Entries without a mark were called inactive. A plus sign joins genes that one reagent is predicted to hit. Not given: the amount of reagent, the time to read-out, the dose of the treatment.

Test: 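Genome-wide hunt for genes that control Wingless pathway activity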 (primary screen)
System: Drosophila clone 8 imaginal disc epithelial cells
Reagents: long dsRNA against Drosophila genes
Treatment: pathway stimulated by co-transfected Wingless expression plasmid
Measurement: 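Firefly luciferase from a tcf-site Wingless reporter, measured alongside co-transfected Renilla luciferase that tracks transfection; pathway stimulated by a Wingless plasmid; the firefly-to-Renilla ratio is not deposited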
Scale: firefly reporter light: higher = more Wg reporter light, before normalisation; Renilla control light: higher = more transfected or surviving cells
Call rule: 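Strong candidates differ from their plate mean by at least two out of four per-plate statistical tests; weak candidates meet just one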
Meaning of the calls: active = candidate regulator (raises or lowers reporter); inactive = not a candidate

| target gene | amplicon | firefly reporter light, replicate 1 | firefly reporter light, replicate 2 | Renilla control light, replicate 1 | Renilla control light, replicate 2 |
| --- | --- | --- | --- | --- | --- |
| CG10734 | DRSC05998 | 6338 | – | 2284 | – |
| CG31909 | DRSC22180 | 9.59e5 | 9.42e5 | 4.89e5 | 4.46e5 |
| CG14931 | DRSC02413 | 3680 | 5952 | 1767 | 2965 |
| rut (rutabaga) | DRSC20367 | 17552 | – | 3402 | – |
| CG6660 | DRSC16087 | 2648 | 6761 | 1395 | 2512 |
| CG34289 | DRSC13625 | 4272 | – | 1968 | – |
| Wnt4 (Wnt oncogene analog 4) | DRSC00976 | 3430 | – | 4118 | – |
| Wnt4 (Wnt oncogene analog 4) | DRSC03477 | 1389 | 6677 | 597 | 2518 |
| tow (target of wingless) | DRSC10192 | 2144 | 6819 | 281 | 627 |
| CG17104 | DRSC02573 | 9223 | – | 1956 | – |
| Mocs1 (Molybdenum cofactor synthesis 1) | DRSC11225 | 6381 | – | 2440 | – |
| Prosbeta3 (Proteasome beta3 subunit) | DRSC16801 | 3994 | – | 2444 | – |
| Ugt37E1 (UDP-glycosyltransferase family 37 member E1) | DRSC02248 | 3308 | 7827 | 1430 | 3504 |
| CG14647 | DRSC12233 | 10660 | – | 4480 | – |
| CG14647 | DRSC22497 | 4.61e5 | 3.74e5 | 2.06e5 | 104 |
| CG9394 | DRSC04550 | 2162 | 9341 | 487 | 3996 |
| mthl1 (methuselah-like 1) | DRSC19905 | 14597 | – | 7192 | – |
| thoc7 | DRSC08512 | 10242 | – | 2669 | – |
| Acn (Acinus) | DRSC02062 | 8758 | – | 1067 | – |
| asRNA:CR31144 + RpL3 | DRSC16834 | 11404 | – | 2712 | – |
| Sln (Silnoon) | DRSC07133 | 8720 | – | 2283 | – |
| kis (kismet) | DRSC00521 | 3479 | 12795 | 1688 | 3991 |
| kis (kismet) | DRSC00625 | 1458 | 8464 | 704 | 3288 |
| kis (kismet) | DRSC00823 | 7962 | – | 4679 | – |
| Edem1 (ER degradation enhancer, mannosidase alpha-like 1) | DRSC18573 | 2325 | 3680 | 1021 | 1517 |
| ATP8 (retired record) | DRSC21277 | 21128 | – | 11904 | – |
| CG13506 | DRSC04150 | 2068 | 6269 | 288 | 2839 |
| Oatp33Eb (Organic anion transporting polypeptide 33Eb) | DRSC02955 | 3595 | 10339 | 1424 | 4728 |
| spd-2 (spindle defective 2) | DRSC09682 | 2436 | – | 931 | – |
| Acer (Angiotensin-converting enzyme-related) | DRSC01852 | 14549 | – | 3024 | – |
| CG8006 | DRSC10949 | 2651 | – | 1216 | – |
| Klp67A + CG34456 | DRSC10420 | 5942 | – | 3456 | – |
| Lst8 | DRSC18262 | 2138 | 4365 | 683 | 1460 |
| alpha-PheRS (Phenylalanyl-tRNA synthetase, alpha-subunit) | DRSC18224 | 2353 | 6258 | 889 | 1702 |
| inv (invected) | DRSC07633 | 9354 | – | 3488 | – |
| CG16863 | DRSC01892 | 2598 | 5689 | 1120 | 3056 |
| CG15597 | DRSC12283 | 11729 | 7.73e5 | 3019 | 4.08e5 |
| CG15365 | DRSC18038 | 25914 | – | 3289 | – |
| l(2)34Fd (lethal (2) 34Fd) | DRSC01911 | 5349 | – | 1740 | – |
| Cht2 (Chitinase 2) | DRSC08650 | 19752 | – | 4583 | – |
| Art8 (Arginine methyltransferase 8) | DRSC02530 | 2445 | 8066 | 941 | 3972 |
| CG14718 | DRSC14941 | 13517 | – | 3547 | – |
| smog | DRSC00334 | 3509 | 7811 | 1448 | 2759 |
| smog | DRSC00335 | 3431 | 5381 | 816 | 976 |
| Sox100B | DRSC15090 | 8297 | – | 3613 | – |
| Sox100B | DRSC16866 | 8041 | – | 3153 | – |
| Or7a (Odorant receptor 7a) | DRSC18691 | 18532 | – | 10000 | – |
| CG15203 | DRSC19650 | 20261 | – | 11088 | – |
| Atf3 (Activating transcription factor 3) | DRSC17225 | 21651 | – | 6058 | – |
| CG6426 | DRSC06985 | 7552 | – | 2916 | – |
| nAChRalpha4 (nicotinic Acetylcholine Receptor alpha4) | DRSC11925 | 3610 | – | 1872 | – |
| nAChRalpha4 (nicotinic Acetylcholine Receptor alpha4) | DRSC11929 | 4593 | – | 2452 | – |
| scpr-B (SCP-containing protein B) | DRSC15200 | 6535 | – | 2412 | – |
| CG18518 | DRSC01509 | 16813 | – | 8336 | – |
| NELF-B | DRSC17734 | 2130 | 8043 | 860 | 2224 |
| mora (morgana) | DRSC16594 | 17377 | – | 13786 | – |
| Alg11 (ALG11, alpha-1,2-mannosyltransferase) | DRSC11647 | 10544 | – | 5588 | – |
| CG12134 | DRSC06109 | 3177 | 7984 | 467 | 3153 |
| Klp54D (Kinesin-like protein at 54D) | DRSC07450 | 6247 | – | 3043 | – |
| CG5246 | DRSC15751 | 13093 | – | 3856 | – |
| JMJD7 (Jumonji domain containing 7) | DRSC09703 | 4805 | – | 1576 | – |
| CG32462 + asRNA:CR43426 | DRSC11851 | 9280 | – | 2341 | – |
| Obp83ef (Odorant-binding protein 83ef) | DRSC12268 | 19080 | – | 3767 | – |
| Nmnat (Nicotinamide mononucleotide adenylyltransferase) | DRSC14644 | 27563 | – | 16426 | – |
| Alas (Aminolevulinate synthase) | DRSC04044 | 9698 | – | 2150 | – |
| Nmt (N-myristoyl transferase) | DRSC11236 | 2204 | 8491 | 1608 | 4033 |
| CG12213 | DRSC14478 | 8016 | – | 3920 | – |
| CG12213 | DRSC22109 | 7.40e5 | 7.56e5 | 3.11e5 | 2.95e5 |
| Cyp9f3 (Cytochrome P450 9f3) | DRSC16636 | 11958 | – | 3171 | – |
| CG14259 | DRSC14754 | 5325 | – | 2332 | – |
| MCPH1 (Microcephalin) | DRSC06309 | 16374 | – | 3313 | – |
| MCPH1 (Microcephalin) | DRSC07308 | 5788 | – | 2368 | – |
| MCPH1 (Microcephalin) | DRSC22536 | 5.40e5 | 5.82e5 | 1.61e5 | 1.60e5 |

An excerpt from above, reduced to “Renilla control light, replicate 1”.
CG15597 [DRSC12283]	3019
CG15365 [DRSC18038]	3289
l(2)34Fd (lethal (2) 34Fd) [DRSC01911]	1740
Cht2 (Chitinase 2) [DRSC08650]	4583
Art8 (Arginine methyltransferase 8) [DRSC02530]	941
CG14718 [DRSC14941]	3547
smog [DRSC00334]	1448
smog [DRSC00335]	816
